We go through one sequence from PMC4287435.

By UniProt entry, the sequences of proteins in these tests, tags left out. Where a name states a change or a piece, a line headed by the entry shows the natural chain unless it says otherwise.
UniProt Q9SJQ6: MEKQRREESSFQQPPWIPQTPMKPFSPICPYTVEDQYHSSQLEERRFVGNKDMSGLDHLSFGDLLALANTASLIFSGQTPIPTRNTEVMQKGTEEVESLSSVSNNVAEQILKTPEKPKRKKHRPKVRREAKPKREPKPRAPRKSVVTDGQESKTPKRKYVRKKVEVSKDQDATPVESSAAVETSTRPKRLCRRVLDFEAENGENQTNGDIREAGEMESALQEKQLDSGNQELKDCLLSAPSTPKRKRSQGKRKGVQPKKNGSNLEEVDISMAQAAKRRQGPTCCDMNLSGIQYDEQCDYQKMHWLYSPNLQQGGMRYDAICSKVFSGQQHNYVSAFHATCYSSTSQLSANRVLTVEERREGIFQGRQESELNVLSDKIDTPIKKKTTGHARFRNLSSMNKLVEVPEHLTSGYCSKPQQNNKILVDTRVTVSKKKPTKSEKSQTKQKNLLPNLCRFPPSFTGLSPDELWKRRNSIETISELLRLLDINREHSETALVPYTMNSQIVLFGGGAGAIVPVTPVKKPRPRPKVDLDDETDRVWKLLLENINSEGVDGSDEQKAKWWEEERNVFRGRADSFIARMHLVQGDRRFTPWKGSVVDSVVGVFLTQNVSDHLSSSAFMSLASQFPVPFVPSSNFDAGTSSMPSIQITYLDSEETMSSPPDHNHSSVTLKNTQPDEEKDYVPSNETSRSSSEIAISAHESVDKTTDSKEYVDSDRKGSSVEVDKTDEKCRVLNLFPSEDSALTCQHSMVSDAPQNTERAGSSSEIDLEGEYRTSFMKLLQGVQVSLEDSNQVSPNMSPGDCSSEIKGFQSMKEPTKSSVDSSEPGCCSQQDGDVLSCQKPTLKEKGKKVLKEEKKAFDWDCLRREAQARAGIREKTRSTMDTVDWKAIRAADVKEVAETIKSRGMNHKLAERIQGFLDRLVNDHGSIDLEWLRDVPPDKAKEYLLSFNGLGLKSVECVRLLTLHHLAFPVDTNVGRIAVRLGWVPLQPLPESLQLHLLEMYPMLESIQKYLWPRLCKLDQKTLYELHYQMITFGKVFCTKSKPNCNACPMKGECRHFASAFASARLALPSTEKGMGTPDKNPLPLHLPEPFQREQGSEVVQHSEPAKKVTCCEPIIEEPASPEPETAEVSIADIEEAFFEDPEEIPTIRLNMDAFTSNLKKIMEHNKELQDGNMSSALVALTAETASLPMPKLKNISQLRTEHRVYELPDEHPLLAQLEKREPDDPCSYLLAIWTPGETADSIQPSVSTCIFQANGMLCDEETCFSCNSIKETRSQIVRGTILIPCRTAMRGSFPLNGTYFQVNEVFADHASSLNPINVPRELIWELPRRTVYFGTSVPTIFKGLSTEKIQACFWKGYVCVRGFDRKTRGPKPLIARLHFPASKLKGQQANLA

For some of these results: Weaker means in comparison with the reference protein, sequence or condition of that experiment. For some of these results: Protein sequences can lack the tags named with them. For some of these results: For at least one entry, the source does not settle the construct or the ends of the probe.

The target of series [1] is His-ROS1 (Arabidopsis thaliana) (UniProt Q9SJQ6). The experiment in a line: EMSA. As to conditions: 75 nM His-ROS1, 10 nM DNA, part of probe trapped in wells, 3'-phosphate on S39, 5'-phosphate on S40, 10 mM Tris-HCl pH 8.0, 1 mM DTT, 10 ug/ml BSA, 15 min at 25 C, 0.2% agarose gel in 1x TAE at room temperature, recombinant protein, protein details: His, label: 5' Alexa Fluor on S39. Background: In EMSA bound probe runs differently from free probe, usually more slowly.

Series [2] addresses T1, MBP-APE1L (Arabidopsis thaliana) (UniProt Q5XF07).
T1 sequence (looked up): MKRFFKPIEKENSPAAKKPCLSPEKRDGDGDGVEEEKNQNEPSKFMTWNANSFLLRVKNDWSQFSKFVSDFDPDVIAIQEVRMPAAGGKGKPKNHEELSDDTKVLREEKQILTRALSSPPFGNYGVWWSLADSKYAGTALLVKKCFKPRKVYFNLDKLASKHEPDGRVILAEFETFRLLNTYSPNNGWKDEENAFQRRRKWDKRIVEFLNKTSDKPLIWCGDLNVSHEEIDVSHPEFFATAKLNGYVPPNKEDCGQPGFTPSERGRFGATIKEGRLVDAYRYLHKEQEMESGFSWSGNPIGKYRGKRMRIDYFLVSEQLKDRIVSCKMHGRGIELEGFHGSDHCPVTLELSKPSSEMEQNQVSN
Nature of the series: EMSA. To be noted: MBP-APE1L alone, no stable complex, smeared band next to free probe; 3'-phosphate on S39; 5'-phosphate on S40; 10 mM Tris-HCl pH 8.0, 1 mM DTT, 10 ug/ml BSA; 15 min at 25 C; 10 nM DNA; 0.2% agarose gel in 1x TAE at room temperature; recombinant protein; residues 1-364; protein details: MBP (pMAL-c2X); label: 5' Alexa Fluor on S39.

The next series has as its system MBP-ROS1 + MBP-APE1L. The experiment in a line: EMSA. As to conditions: 75 nM MBP-ROS1, 1000 nM MBP-APE1L, higher molecular weight shift than with His-ROS1; 3'-phosphate on S39; 5'-phosphate on S40; 10 mM Tris-HCl pH 8.0, 1 mM DTT, 10 ug/ml BSA; 15 min at 25 C; 10 nM DNA; 0.2% agarose gel in 1x TAE at room temperature; recombinant protein; protein details: MBP,MBP (pMAL-c2X); label: 5' Alexa Fluor on S39.

The subject of the next series is His-ROS1 + MBP-APE1L. The experiment in a line: EMSA, supershift. To be noted: 75 nM His-ROS1, 250-1000 nM MBP-APE1L, ternary complex, anti-MBP supershifts, anti-His does not; 3'-phosphate on S39; 5'-phosphate on S40; 10 mM Tris-HCl pH 8.0, 1 mM DTT, 10 ug/ml BSA; 15 min at 25 C; 10 nM DNA; 0.2% agarose gel in 1x TAE at room temperature; recombinant protein; protein details: His,MBP (pMAL-c2X); label: 5' Alexa Fluor on S39.

In the case of “TCACGGGATCAATGTGTTCTTTCAGCTC / GGTCACGCTGACCAGGAATACC / GGTATTCCTGGTCAGCGTGACCGGAGCTGAAAGAACACATTGATCCCGTGA [1-nt gapped duplex (Al-28P + P30_51 / CGR)]”, the binding result in series [1] is listed as “binds”; in series [2], “binds more weakly”; in the series with MBP-ROS1 + MBP-APE1L it was “binds”; with His-ROS1 + MBP-APE1L, “binds”.
